The assay deals with LEC-γ1, chimeric form of P-selectin conjugated to the Fc portion of a human IgGγ1 (human) (UniProt P16109). Briefly: inhibition of Lec-γ1 binding to coated PSGL-1 (FIG. 30).

The chains behind the UniProt entries cited, without tags or fusion partners. Where a name states a change or a piece, a line headed by the entry shows the natural chain unless it says otherwise. Residues count along the entry.
UniProt P16109, residues 42-771: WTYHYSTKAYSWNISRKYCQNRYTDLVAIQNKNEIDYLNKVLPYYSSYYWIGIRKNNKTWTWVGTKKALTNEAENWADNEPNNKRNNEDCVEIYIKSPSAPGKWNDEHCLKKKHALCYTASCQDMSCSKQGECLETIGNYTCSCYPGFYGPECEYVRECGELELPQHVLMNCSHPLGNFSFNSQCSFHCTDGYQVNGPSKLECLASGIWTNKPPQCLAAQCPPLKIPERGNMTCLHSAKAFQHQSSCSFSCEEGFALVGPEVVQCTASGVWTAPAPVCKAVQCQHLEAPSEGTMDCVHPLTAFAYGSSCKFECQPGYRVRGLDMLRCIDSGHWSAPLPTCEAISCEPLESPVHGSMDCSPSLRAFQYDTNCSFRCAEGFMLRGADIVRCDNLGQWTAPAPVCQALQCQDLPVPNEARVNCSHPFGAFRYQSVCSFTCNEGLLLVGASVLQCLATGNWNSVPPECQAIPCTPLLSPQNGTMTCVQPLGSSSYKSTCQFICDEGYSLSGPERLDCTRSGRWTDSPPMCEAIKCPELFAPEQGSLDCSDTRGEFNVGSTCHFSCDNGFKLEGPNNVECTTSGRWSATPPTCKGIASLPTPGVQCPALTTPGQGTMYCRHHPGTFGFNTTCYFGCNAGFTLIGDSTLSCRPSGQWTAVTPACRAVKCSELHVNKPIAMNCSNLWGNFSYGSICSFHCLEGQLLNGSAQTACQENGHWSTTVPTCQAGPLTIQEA

These are yes or no findings as the source states them, for the method shown. Some binding calls cover weakened binding; strength is not graded here.

Take QATEYEYLDYDFLPEC [peptide … (amino acids 42-56 of SEQ ID NO:2 with a C-terminal cysteine)]: the binding entry is on record as “binds”.

Source of the values: patent US7563760 (GENETICS INSTITUTE, dated 2009).
